According to patent US20120065123A1, “Synthetic Antibodies” (priority 2009, published 2012):
Results are given in words; binding and its absence hold for the method and conditions named.

Biological target: transferrin
Test: SPR, proteins on the same chip

For FERDPLMMPWSFLQSRQGSC [TNF1 lead peptide], the binding was “no binding”.
